To fix the notation:
T1: RAB-10(Q68L), fusion to the DNA-binding domain of LexA (bait) (C. elegans) (UniProt Q94148)
T1 sequence: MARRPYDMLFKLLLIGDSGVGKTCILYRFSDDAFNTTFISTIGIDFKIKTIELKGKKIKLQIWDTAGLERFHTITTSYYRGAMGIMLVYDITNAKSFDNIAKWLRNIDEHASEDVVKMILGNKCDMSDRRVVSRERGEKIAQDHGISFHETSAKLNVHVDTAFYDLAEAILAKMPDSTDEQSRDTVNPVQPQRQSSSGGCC

B1: HA-tagged RAB-10(Q68L) (protein, UniProt Q94148 1-201)
chain: T1 sequence

Results on eight molecules are retold here after PMC4578947.

These are yes or no findings as the source states them, for the method shown. A result given as binding can be weak or reduced; the word gives no strength. For part of these data: Tags and fused reporters may be left off the sequences shown. For part of these data: In cells and extracts the contact can be indirect.

One test concerns the target full length GST-AMPH-1 (C. elegans). Description: pull-down; Glutathione beads loaded with recombinant GST-AMPH-1 incubated with in vitro-translated HA-RAB-10(Q68L) and/or FLAG-TBC-2; western blot with anti-HA and anti-FLAG; only the target purified. (In western blotting, separated proteins are transferred to a membrane and probed.)
For B1, the binding entry is recorded as “binds”.

Another test addresses T1, RAB-10(Q68L), fusion to the DNA-binding domain of LexA (bait) (C. elegans). Nature of the test: two-hybrid; DupLEX-A system, yeast EGY48; bait fused to LexA DNA-binding domain, prey fused to B42 activation domain; LEU2 growth assay (and β-galactosidase reporter), galactose/raffinose, 30°C, 3 days.
On to “Full-length TBC-2, fusion to the B42 transcriptional activation domain (prey) (from UniProt Q23419)”, for which the binding result is on record as “binds”.

On to “TBC-2 (QRNNE 288–292 AAAAA) (C. elegans)”, for which the binding result is on record as “no binding”.

For the molecule “TBC-2 with alanine substitutions at positions aa283-287 (C. elegans)”, the binding result is recorded as “no binding”.

As for “TBC-2 with alanine substitutions at positions aa294-298 (C. elegans)”, the binding entry is “no binding”.

In the case of “TBC-2(P150A), fusion to the B42 transcriptional activation domain (prey) (C. elegans)”, the binding result is “binds”.

“TBC-2(P153A), fusion to the B42 transcriptional activation domain (prey) (C. elegans)”: the binding result is listed as “binds”.

Regarding “TBC-2(R155A), fusion to the B42 transcriptional activation domain (prey) (C. elegans)”, the binding entry is listed as “binds”.

A further test deals with AMPH-1 SH3 domain (bait) (C. elegans) (UniProt Q21004). The description is as above.
Take “Full-length TBC-2, fusion to the B42 transcriptional activation domain (prey) (from UniProt Q23419)”: the binding entry was “binds”.
